Results published in article PMC9965216.
No constants are given. Whether binding was seen depends on the method and setting. A result given as binding can be weak or reduced; the word gives no strength.

Target: GroEL14-GLuc (tetradecameric GroEL14 with incorporated Gaussia princeps luciferase) (E. coli | Gaussia princeps)
Experiment: FRET or BRET; BRET from purified GroEL14-GLuc (coelenterazine) to fluorescein-labeled denatured proteins; bioluminescence spectra; both purified

B1: fluorescein-labeled denatured malate dehydrogenase (enzyme, UniProt P00346 25-338)
chain: AKVAVLGASGGIGQPLSLLLKNSPLVSRLTLYDIAHTPGVAADLSHIETRATVKGYLGPEQLPDCLKGCDVVVIPAGVPRKPGMTRDDLFNTNATIVATLTAACAQHCPDAMICIISNPVNSTIPITAEVFKKHGVYNPNKIFGVTTLDIVRANAFVAELKGLDPARVSVPVIGGHAGKTIIPLISQCTPKVDFPQDQLSTLTGRIQEAGTEVVKAKAGAGSATLSMAYAGARFVFSLVDAMNGKEGVVECSFVKSQETDCPYFSTPLLLGKKGIEKNLGIGKISPFEEKMIAEAIPELKASIKKGEEFVKNMK
modifications: fluorescein (5-(and 6)-carboxyfluorescein succinimidyl ester)
With B1 the binding was “binds”.
